Measured values as given in the supplement of paper PMC10849652.
The other results are listed elsewhere or left out. Residues, ends and D or L forms follow the SMILES beside them. *: point of attachment. Cbz = O=C(OCc1ccccc1)*

The chains behind the UniProt entries cited, without tags or fusion partners. Where a name states a change or a piece, a line headed by the entry shows the natural chain unless it says otherwise.
UniProt Q13033: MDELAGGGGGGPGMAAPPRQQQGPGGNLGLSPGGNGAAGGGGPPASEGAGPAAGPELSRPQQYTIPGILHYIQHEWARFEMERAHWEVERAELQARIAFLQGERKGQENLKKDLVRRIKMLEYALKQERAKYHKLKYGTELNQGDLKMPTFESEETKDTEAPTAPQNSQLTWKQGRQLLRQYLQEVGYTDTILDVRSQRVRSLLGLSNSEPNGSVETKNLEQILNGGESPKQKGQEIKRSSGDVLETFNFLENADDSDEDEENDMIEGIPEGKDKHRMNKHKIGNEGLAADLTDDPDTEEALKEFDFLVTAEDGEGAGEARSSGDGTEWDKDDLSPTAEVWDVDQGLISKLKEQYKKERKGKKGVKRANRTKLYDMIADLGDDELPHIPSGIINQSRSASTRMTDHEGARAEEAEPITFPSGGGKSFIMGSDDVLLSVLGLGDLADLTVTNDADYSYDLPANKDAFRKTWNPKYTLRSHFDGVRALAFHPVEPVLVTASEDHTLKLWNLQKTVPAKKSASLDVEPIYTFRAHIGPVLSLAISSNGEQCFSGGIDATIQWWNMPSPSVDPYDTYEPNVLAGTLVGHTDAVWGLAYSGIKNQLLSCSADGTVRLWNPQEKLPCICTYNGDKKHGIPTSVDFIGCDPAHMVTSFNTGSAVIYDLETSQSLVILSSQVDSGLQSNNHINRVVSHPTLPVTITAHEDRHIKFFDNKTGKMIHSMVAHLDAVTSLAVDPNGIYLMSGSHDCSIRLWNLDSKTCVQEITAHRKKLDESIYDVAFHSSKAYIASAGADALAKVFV
UniProt O43815: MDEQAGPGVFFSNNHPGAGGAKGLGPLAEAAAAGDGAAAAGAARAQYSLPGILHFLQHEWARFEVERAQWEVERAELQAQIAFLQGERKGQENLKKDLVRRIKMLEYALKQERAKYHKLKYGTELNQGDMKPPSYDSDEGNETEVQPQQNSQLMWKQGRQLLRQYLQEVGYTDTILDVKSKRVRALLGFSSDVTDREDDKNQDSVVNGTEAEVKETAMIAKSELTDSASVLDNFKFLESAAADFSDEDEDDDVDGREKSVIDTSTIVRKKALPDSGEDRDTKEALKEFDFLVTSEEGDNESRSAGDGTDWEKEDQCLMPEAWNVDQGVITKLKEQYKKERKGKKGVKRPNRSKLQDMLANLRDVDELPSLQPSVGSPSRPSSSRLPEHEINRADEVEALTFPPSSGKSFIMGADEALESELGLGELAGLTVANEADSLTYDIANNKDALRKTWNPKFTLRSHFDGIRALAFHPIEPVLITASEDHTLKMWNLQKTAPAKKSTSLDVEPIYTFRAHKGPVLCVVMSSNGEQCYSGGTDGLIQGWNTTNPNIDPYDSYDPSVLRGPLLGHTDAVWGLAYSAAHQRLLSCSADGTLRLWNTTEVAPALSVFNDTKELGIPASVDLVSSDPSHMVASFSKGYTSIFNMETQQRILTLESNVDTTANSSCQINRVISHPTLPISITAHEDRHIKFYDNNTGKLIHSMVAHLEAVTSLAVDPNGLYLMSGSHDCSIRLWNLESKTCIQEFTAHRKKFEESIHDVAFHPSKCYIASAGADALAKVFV
UniProt Q15208: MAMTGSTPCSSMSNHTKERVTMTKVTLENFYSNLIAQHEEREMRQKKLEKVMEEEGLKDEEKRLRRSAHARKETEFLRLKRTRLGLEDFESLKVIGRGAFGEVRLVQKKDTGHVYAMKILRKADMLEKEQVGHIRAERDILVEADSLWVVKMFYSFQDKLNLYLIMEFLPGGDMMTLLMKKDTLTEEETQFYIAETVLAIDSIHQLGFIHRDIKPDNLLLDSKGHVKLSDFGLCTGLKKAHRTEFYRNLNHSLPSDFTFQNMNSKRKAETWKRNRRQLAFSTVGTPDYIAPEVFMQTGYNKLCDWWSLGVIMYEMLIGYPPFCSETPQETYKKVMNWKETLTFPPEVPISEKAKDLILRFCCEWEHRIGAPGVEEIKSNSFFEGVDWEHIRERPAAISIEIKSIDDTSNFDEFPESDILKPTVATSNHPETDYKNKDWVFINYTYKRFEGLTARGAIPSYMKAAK
UniProt Q7L7X3: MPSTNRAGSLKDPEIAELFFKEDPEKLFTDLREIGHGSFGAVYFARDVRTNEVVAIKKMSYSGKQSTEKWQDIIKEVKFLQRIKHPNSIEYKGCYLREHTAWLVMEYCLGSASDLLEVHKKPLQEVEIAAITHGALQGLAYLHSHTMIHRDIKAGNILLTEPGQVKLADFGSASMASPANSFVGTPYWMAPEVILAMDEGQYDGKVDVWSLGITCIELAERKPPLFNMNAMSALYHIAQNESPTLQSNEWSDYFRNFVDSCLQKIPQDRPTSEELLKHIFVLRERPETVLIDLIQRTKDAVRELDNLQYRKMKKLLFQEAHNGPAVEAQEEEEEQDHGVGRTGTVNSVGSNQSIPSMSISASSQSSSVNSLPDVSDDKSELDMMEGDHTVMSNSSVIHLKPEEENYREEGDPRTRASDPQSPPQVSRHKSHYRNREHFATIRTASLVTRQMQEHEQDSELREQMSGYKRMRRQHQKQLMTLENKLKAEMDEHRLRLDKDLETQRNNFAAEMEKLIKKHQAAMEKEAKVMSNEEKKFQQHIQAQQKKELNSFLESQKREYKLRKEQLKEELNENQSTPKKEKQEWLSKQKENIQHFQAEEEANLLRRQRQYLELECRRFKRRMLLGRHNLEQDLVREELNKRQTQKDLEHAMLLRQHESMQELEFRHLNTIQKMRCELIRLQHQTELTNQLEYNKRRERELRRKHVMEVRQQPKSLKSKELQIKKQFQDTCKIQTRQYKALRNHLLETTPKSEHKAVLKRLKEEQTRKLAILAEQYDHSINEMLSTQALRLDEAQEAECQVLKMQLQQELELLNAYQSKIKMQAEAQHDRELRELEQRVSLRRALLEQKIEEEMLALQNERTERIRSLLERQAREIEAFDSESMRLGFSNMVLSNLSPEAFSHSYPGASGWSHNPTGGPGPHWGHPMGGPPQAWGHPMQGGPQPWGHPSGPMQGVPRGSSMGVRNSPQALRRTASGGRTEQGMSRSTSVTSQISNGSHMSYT
UniProt Q9ULQ0: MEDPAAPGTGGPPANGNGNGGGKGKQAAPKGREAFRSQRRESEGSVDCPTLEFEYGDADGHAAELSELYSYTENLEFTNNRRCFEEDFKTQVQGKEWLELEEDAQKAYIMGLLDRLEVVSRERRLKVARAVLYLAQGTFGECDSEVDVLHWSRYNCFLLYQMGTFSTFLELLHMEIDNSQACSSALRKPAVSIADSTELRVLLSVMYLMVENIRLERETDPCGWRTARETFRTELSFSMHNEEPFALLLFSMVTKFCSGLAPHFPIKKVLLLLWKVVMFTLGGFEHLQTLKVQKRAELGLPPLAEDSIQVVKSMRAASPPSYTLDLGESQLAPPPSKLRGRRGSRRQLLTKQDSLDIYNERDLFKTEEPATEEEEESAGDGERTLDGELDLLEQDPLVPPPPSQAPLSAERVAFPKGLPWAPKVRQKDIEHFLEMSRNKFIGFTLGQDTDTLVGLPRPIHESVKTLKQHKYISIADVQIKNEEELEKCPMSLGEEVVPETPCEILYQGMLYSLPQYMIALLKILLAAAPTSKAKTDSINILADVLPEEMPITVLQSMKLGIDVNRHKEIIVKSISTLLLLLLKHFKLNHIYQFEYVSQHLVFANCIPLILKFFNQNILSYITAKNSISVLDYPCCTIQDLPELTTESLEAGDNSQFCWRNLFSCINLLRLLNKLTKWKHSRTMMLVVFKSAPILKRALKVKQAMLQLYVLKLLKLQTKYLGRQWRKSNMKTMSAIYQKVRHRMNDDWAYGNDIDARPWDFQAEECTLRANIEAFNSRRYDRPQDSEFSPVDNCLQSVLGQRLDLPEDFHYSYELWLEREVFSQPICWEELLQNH
UniProt P53597: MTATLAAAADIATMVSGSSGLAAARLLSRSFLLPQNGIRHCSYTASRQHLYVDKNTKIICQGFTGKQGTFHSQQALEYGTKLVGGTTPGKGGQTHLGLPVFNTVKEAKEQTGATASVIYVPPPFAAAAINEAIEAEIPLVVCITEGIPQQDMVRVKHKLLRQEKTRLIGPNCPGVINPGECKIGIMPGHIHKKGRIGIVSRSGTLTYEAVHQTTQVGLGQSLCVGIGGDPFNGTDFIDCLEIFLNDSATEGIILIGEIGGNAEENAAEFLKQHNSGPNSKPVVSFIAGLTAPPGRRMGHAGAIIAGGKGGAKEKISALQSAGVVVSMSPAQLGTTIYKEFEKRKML
UniProt Q16594, whole entry, looked up: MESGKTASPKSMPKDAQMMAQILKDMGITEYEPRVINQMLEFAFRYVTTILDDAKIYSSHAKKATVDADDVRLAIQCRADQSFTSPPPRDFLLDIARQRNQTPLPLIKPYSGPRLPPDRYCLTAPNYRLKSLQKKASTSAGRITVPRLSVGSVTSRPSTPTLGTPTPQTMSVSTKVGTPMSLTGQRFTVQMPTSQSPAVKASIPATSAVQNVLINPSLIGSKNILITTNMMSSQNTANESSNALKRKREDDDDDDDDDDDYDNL
UniProt Q1ZZU3: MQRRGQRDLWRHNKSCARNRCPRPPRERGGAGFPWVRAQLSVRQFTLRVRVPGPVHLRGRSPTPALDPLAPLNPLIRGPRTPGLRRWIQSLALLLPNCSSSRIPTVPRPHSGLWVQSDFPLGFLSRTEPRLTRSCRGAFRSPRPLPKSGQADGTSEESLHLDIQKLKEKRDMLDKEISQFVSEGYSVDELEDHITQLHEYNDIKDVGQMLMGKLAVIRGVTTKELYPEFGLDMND
UniProt P61956, whole entry, looked up: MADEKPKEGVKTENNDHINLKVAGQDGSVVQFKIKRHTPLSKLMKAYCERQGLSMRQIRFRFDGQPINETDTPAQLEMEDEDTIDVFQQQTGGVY
UniProt Q13043: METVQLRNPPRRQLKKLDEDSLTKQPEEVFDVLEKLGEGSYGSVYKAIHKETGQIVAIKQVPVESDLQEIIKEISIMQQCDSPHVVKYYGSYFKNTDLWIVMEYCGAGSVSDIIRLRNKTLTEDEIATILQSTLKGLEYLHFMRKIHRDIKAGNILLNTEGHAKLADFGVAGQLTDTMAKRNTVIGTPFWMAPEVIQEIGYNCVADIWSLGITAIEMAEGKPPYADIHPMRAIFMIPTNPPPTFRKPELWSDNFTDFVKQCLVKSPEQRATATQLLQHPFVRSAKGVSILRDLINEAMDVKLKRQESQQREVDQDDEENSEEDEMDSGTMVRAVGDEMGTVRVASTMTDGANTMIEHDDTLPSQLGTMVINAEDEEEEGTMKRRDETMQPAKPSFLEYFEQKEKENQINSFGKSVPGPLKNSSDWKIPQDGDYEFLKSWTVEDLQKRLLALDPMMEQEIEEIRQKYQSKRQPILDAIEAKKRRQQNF
UniProt O95926: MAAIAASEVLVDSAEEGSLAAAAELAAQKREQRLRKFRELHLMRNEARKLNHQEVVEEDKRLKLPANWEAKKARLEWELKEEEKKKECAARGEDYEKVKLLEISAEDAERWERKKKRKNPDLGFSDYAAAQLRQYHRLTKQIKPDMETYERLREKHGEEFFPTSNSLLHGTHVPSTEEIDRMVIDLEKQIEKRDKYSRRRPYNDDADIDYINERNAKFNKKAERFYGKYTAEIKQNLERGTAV
UniProt Q9UH99: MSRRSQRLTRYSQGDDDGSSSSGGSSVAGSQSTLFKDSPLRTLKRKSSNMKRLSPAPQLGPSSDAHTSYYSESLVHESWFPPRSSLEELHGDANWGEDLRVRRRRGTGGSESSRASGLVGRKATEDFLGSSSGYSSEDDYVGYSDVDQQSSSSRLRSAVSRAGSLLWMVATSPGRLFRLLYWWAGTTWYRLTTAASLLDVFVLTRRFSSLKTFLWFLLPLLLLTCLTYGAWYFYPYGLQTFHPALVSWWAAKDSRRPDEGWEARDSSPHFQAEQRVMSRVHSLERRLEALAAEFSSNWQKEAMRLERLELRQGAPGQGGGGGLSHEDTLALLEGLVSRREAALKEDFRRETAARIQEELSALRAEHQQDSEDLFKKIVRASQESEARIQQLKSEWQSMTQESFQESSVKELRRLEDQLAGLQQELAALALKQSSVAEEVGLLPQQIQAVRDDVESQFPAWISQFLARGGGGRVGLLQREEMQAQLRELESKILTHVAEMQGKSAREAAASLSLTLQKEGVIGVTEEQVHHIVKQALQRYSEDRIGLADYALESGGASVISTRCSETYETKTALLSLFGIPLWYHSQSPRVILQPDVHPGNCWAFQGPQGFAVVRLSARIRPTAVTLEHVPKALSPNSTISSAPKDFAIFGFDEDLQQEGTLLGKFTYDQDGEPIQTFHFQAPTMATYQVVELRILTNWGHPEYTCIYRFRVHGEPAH
UniProt P56962: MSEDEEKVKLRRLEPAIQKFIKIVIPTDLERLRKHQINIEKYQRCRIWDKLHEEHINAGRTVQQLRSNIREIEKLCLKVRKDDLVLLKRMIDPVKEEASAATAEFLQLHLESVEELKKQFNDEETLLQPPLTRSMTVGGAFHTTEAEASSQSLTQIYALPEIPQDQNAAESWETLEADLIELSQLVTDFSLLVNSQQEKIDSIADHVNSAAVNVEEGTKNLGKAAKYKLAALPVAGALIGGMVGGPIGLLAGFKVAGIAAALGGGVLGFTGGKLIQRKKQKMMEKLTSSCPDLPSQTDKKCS

Key:
Test in all cases: log2 fold change, soluble protein after heating vs DMSO (PISA); higher = thermal stabilisation; K562 cells, 10 uM, 30 min; active = over 0.2 and 3.5 SD of the protein, either way, in both replicates (recomputed)
erlotinib = compound: C#Cc1cccc(Nc2ncnc3cc(OCCOC)c(OCCOC)cc23)c1 [erlotinib]
Procedure, shortened: (§1)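 Quantification of soluble protein used TMTpro 16plex LC-MS/MS, with channel sums equalised. Samples were the supernatant after 21,000xg for 90 min of pooled aliquots from K562 cells (2×10^6 cells/mL) treated with 10 μM compound for 30 min, heated for 3 min over 48°C-58°C, and extracted in PBS with 0.5% NP-40 at 4°C. Values, from duplicates, describe thermal stability against control samples on a log2 fold-change scale.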

[1] = compound: C/C(=N\NC(=O)C1=CC(=CC=C1)S(=O)(=O)N2CCOCC2)/C3=C(C=CC(=C3)Cl)O
Procedure, shortened: as §1

[2] = compound: C1=CC(=C(C=C1Cl)C2=NC3=NC=CN=C3C(=N2)NC4=CC=NC=C4)F
Procedure, shortened: as §1

[3] = compound: C1=CC(=CC=C1C2=NC3=C(N2)C=C(C=C3)C(=O)N)OC4=CC=C(C=C4)Cl
Procedure, shortened: as §1

[4] = compound: C1=CC2=C(C=CC(=C2)/C=C\3/C(=O)NC(=NCC4=CC=CS4)S3)N=C1
Procedure, shortened: as §1

[5] = compound: C1=CC2=NC=CN=C2C=C1/C=C/3\C(=O)NC(=O)S3
Procedure, shortened: as §1

[6] = compound: C1=CC=C2C(=C1)C3=NNC4=CC=CC(=C43)C2=O
Procedure, shortened: as §1

[7] = compound: C1CCN(C1)C(=O)NC2=CC=CC(=C2)NC3=NC=C(C(=N3)NCCC4=CN=CN4)Br
Procedure, shortened: as §1

[8] = compound: C1CN(CCC1(CC2=CC=C(C=C2)Cl)N)C3=NC=NC4=C3C=CN4
Procedure, shortened: as §1

IRAK-1-4 Inhibitor I = compound: C1COCCN1CCN2C3=CC=CC=C3N=C2NC(=O)C4=CC(=CC=C4)[N+](=O)[O-] [IRAK-1-4 Inhibitor I]
Procedure, shortened: as §1

ibrutinib = compound: C=CC(=O)N1CCC[C@@H](n2nc(-c3ccc(Oc4ccccc4)cc3)c3c(N)ncnc32)C1 [ibrutinib]
Procedure, shortened: as §1

[9] = compound: CC(=O)c1cnc2ccc(-c3cc(Cl)c(O)c(Cl)c3)nc2c1N[C@H]1CC[C@H](CN(C)C)CC1
Procedure, shortened: as §1

[10] = compound: CC(C)(O)CC(=O)NCCn1ccc2ncnc(Nc3ccc(Oc4cccc(C(F)(F)F)c4)c(Cl)c3)c21
Procedure, shortened: as §1

[11] = compound: CC(C)C1=C2N=C(C=C(N2N=C1)NCC3=CC=CC=C3)NCCCCCCN
Procedure, shortened: as §1

pinometostat = compound: CC(C)N(C[C@H]1O[C@@H](n2cnc3c(N)ncnc32)[C@H](O)[C@@H]1O)[C@H]1C[C@@H](CCc2nc3cc(C(C)(C)C)ccc3[nH]2)C1 [pinometostat]
Procedure, shortened: as §1

[12] = compound: CC1=C(C(CC(=O)N1)C2=CC=C(C=C2)C(F)(F)F)C(=O)NC3=C(C=C4C(=C3)C=NN4)F
Procedure, shortened: as §1

[13] = compound: CC1=C(C2=C(C=C1)C(=O)C3=CC=CC=C3N2CCCN)C
Procedure, shortened: as §1

[14] = compound: C1=CC=C(C=C1)C2=NC(=C(N2)C3=CC=NC=C3)C4=CC(=C(C=C4)Cl)O
Procedure, shortened: as §1

ralimetinib = compound: CC(C)(C)Cn1c(N)nc2ccc(-c3[nH]c(C(C)(C)C)nc3-c3ccc(F)cc3)nc21 [ralimetinib]
Procedure, shortened: as §1

[15] = compound: CC(C)C[C@@H](C=O)NC(=O)[C@H](CC(C)C)NC(=O)[C@H](CC(C)C)NC(=O)OCc1ccccc1
Procedure, shortened: as §1

Measured: log2 fold change

STRN3 isoform 2 (UniProt Q13033)
inactive: erlotinib -0.005 | [1] -0.163 | [2] -0.016 | [3] 0.065 | [4] 0.03 | [5] -0.016 | [6] -0.005 | [7] 0.036 | [8] 0.09 | IRAK-1-4 Inhibitor I 0.114 | ibrutinib -0.013 | [9] -0.456 | [10] 0.053 | [11] -0.031 | pinometostat 0.03 | [12] -0.044 | [13] 0.027

STRN (UniProt O43815)
inactive: erlotinib -0.03 | [1] 0 | [2] 0.033 | [3] 0.013 | [4] -0.008 | [5] 0.005 | [6] 0.025 | [7] -0.124 | [8] 0.053 | IRAK-1-4 Inhibitor I 0.029 | ibrutinib 0.073 | [9] -0.046 | ralimetinib 0.13 | [10] -0.023 | [11] 0.03 | [15] -0.066 | pinometostat -0.002 | [13] 0
active: [14] 0.213

STK38 (UniProt Q15208)
inactive: erlotinib 0.039 | [1] 0.138 | [2] 0.029 | [3] -0.021 | [4] 0.014 | [5] 0.079 | [14] 0.057 | [6] 0.049 | [7] -0.025 | [8] -0.05 | IRAK-1-4 Inhibitor I 0.004 | ibrutinib -0.073 | ralimetinib 0.101 | [10] -0.085 | [11] -0.089 | [15] 0.016 | pinometostat 0.058 | [13] -0.026
active: [9] -0.308

TAOK1 (UniProt Q7L7X3)
inactive: erlotinib 0.006 | [1] 0.045 | [2] -0.027 | [3] 0.09 | [4] -0.033 | [5] 0.009 | [14] -0.009 | [6] -0.007 | [7] -0.005 | [8] -0.01 | IRAK-1-4 Inhibitor I 0.011 | ibrutinib -0.057 | ralimetinib 0.062 | [10] 0.009 | [11] -0.031 | [15] 0.018 | pinometostat -0.052 | [13] 0.05
active: [9] -0.827

STRIP2 (UniProt Q9ULQ0)
inactive: erlotinib -0.053 | [1] -0.003 | [2] 0.009 | [3] 0.027 | [4] -0.008 | [5] 0.1 | [14] -0.07 | [6] 0.014 | [7] -0.001 | [8] 0.006 | ibrutinib -0.131 | [9] 0.072 | ralimetinib -0.028 | [10] -0.074 | [11] 0.04 | [15] 0.027 | [12] 0.018 | [13] 0.041

SUPT16H (UniProt Q9Y5B9)
active: [13] -1.34
inactive: erlotinib 0.177 | [1] 0.25 | [2] 0.091 | [3] -0.012 | [4] 0.155 | [5] 0 | [14] 0.064 | [6] 0.098 | [7] -0.098 | [8] -0.011 | IRAK-1-4 Inhibitor I -0.155 | ibrutinib -0.139 | [9] -0.259 | ralimetinib -0.059 | [10] -0.174 | [11] -0.26 | [15] 0.083 | pinometostat 0.044

TATDN2 (UniProt Q93075)
active: [9] -0.402
inactive: erlotinib 0.071 | [1] -0.062 | [2] -0.016 | [3] -0.013 | [4] 0.043 | [5] -0.052 | [6] 0.003 | [7] -0.121 | [8] 0.06 | IRAK-1-4 Inhibitor I -0.006 | ibrutinib 0.072 | [10] 0.102 | [11] 0.058 | pinometostat 0.047 | [13] -0.218

SUCLG1 (UniProt P53597)
inactive: erlotinib 0.033 | [1] 0.027 | [2] 0.052 | [3] -0.004 | [4] 0.012 | [5] -0.017 | [14] 0.061 | [6] -0.017 | [7] 0.021 | [8] 0.034 | IRAK-1-4 Inhibitor I 0.048 | ibrutinib 0.01 | [9] -0.018 | ralimetinib -0.039 | [10] -0.07 | [11] -0.058 | [15] -0.01 | pinometostat -0.04 | [13] 0.053

TAF9 (UniProt Q16594)
inactive: erlotinib -0.007 | [1] -0.003 | [2] -0.036 | [3] 0.014 | [4] -0.027 | [5] 0.019 | [14] -0.04 | [6] -0.032 | [7] -0.024 | [8] 0.02 | IRAK-1-4 Inhibitor I -0.029 | ibrutinib 0.027 | [9] 0.049 | ralimetinib 0.025 | [10] 0.069 | [11] 0.024 | [15] 0.112 | pinometostat -0.072 | [13] -0.005

SWI5 (UniProt Q1ZZU3)
inactive: erlotinib -0.025 | [1] 0.056 | [2] 0.034 | [3] 0.027 | [4] -0.103 | [5] 0.023 | [6] -0.15 | IRAK-1-4 Inhibitor I 0.053 | ibrutinib 0.213 | [9] 0.134 | [10] -0.049 | [11] -0.029 | pinometostat -0.097 | [12] 0.022

SYTL4 (UniProt Q96C24)
inactive: erlotinib -0.016 | [1] -0.09 | [2] 0 | [3] 0.051 | [4] 0.263 | [5] 0.004 | [6] 0.039 | [7] -0.226 | [8] -0.02 | ibrutinib 0.002 | [9] 0.009 | [10] 0.048 | [11] -0.049 | [12] -0.091 | [13] 0.137

SUMO2 (UniProt P61956)
inactive: erlotinib 0.026 | [1] -0.114 | [3] 0.091 | [4] -0.228 | [5] 0.126 | [14] -0.128 | [6] -0.127 | [7] 0.047 | [8] 0.189 | IRAK-1-4 Inhibitor I 0.132 | ibrutinib 0.082 | [9] 0.095 | ralimetinib 0.005 | [11] 0.165 | [15] 0.184 | pinometostat -0.016 | [12] 0.158 | [13] -0.218

SUCO (UniProt Q9UBS9)
inactive: erlotinib 0.088 | [1] -0.143 | [2] -0.089 | [3] -0.027 | [4] 0.186 | [14] -0.017 | [6] 0.068 | [7] -0.101 | [8] -0.024 | IRAK-1-4 Inhibitor I -0.095 | [9] -0.199 | ralimetinib 0.097 | [10] 0.194 | [11] -0.047 | [15] -0.087 | pinometostat 0.085 | [13] 0.006

STK4 (UniProt Q13043)
inactive: erlotinib -0.017 | [1] 0 | [2] -0.02 | [3] 0.003 | [4] 0.04 | [5] -0.02 | [14] -0.009 | [7] -0.025 | [8] 0.025 | IRAK-1-4 Inhibitor I -0.012 | ibrutinib -0.078 | ralimetinib 0.002 | [10] -0.018 | [11] -0.019 | [15] 0.015 | pinometostat 0.008 | [13] 0.019
active: [6] -0.208 | [9] -0.233

SYF2 (UniProt O95926)
inactive: erlotinib -0.042 | [1] -0.054 | [2] -0.052 | [3] 0.05 | [4] -0.054 | [5] 0.069 | [14] 0.023 | [6] -0.097 | [7] -0.024 | [8] 0.122 | IRAK-1-4 Inhibitor I -0.063 | ibrutinib 0.056 | ralimetinib -0.019 | [10] 0.049 | [11] 0.327 | [15] 0.199 | pinometostat 0.072
active: [9] 0.411 | [13] 0.382

SUN2 (UniProt Q9UH99)
inactive: erlotinib -0.067 | [1] 0.023 | [2] -0.031 | [3] -0.004 | [4] -0.012 | [5] 0.02 | [14] 0.005 | [6] -0.087 | [7] -0.038 | [8] -0.017 | IRAK-1-4 Inhibitor I -0.04 | ibrutinib 0.056 | [9] -0.044 | ralimetinib 0.072 | [10] -0.119 | [15] 0.041 | pinometostat 0.027 | [13] -0.117
active: [11] -0.211

STX17 (UniProt P56962)
inactive: erlotinib 0.206 | [1] 0.003 | [2] 0.124 | [3] 0.015 | [4] 0.041 | [5] 0.016 | [14] -0.01 | [6] 0.059 | [7] -0.004 | [8] 0.027 | IRAK-1-4 Inhibitor I -0.062 | ibrutinib 0.002 | [9] 0.031 | ralimetinib 0.037 | [10] -0.063 | [11] -0.235 | [15] 0.028 | pinometostat 0.006 | [13] 0.138

STXBP2 isoform 3 (UniProt Q15833)
active: [11] -0.364
inactive: erlotinib 0.088 | [1] 0.139 | [2] -0.109 | [3] -0.049 | [4] 0.096 | [5] -0.004 | [14] 0.05 | [6] 0.026 | [7] -0.058 | [8] -0.166 | IRAK-1-4 Inhibitor I -0.11 | ibrutinib -0.057 | [9] -0.021 | ralimetinib 0.172 | [10] -0.065 | [15] 0.147 | pinometostat 0.189 | [13] 0.025

Taken from the listing (2 entries):
SUN2 (UniProt Q9UH99)
inactive: erlotinib -0.067 | [1] 0.023 | [2] -0.031 | [3] -0.004 | [4] -0.012 | [5] 0.02 | [14] 0.005 | [6] -0.087 | [7] -0.038 | [8] -0.017 | IRAK-1-4 Inhibitor I -0.04 | ibrutinib 0.056 | [9] -0.044 | ralimetinib 0.072 | [10] -0.119 | [15] 0.041 | pinometostat 0.027 | [13] -0.117
active: [11] -0.211

STX17 (UniProt P56962)
inactive: erlotinib 0.206 | [1] 0.003 | [2] 0.124 | [3] 0.015 | [4] 0.041 | [5] 0.016 | [14] -0.01 | [6] 0.059 | [7] -0.004 | [8] 0.027 | IRAK-1-4 Inhibitor I -0.062 | ibrutinib 0.002 | [9] 0.031 | ralimetinib 0.037 | [10] -0.063 | [11] -0.235 | [15] 0.028 | pinometostat 0.006 | [13] 0.138
